In PubChem BioAssay AID540276 (National Center for Advancing Translational Sciences (NCATS), 2011):
Several values for one entry are separate records, joined by “and”; a condition that tells them apart may be missing. Equal values may be shown once. About 5,400 (1.8%) of roughly 300,000 compounds were called active. The inconclusive results got no clear call from the source; some entries with a clear call stand among them for comparison. Calls come from the whole dose curve; tested in HEK293 cells. Where the call is inconclusive, the potency comes from a doubtful curve fit.
% is set by controls: 0 for no effect and ±100 for the full control effect; potency is the fitted concentration of half-maximal effect.

Test: qHTS for inhibitors of binding or entry into cells for Marburg Virus
Settings: Marburg virus pseudotyped entry inhibition, cell reporter; activity change, negative = inhibition: at 37.8 µM (top of the series) unless noted
With `NC(=O)CC1Nc2cccc3cccc(c23)NC1=O` (configuration not stated) the Potency was inconclusive: 0.282 µM [activator, full curve, poor fit].
In the case of `CCN(CC)c1ccc(CNCc2cccs2)cc1`, the Potency is reported as inconclusive: 10 µM [inhibitor, partial curve, poor fit].
For `COc1ccccc1N1CCN(S(=O)(=O)c2c[nH]c(=O)[nH]c2=O)CC1`, the Potency was inconclusive: 2.82 µM [inhibitor, single point].
With `COc1ccc(/C=N\NC(=O)c2cccc(F)c2)cc1COc1ccccc1` the Potency was inconclusive: 3.55 µM [inhibitor, single point].
With `C#CCSc1n[nH]c(=O)n1-c1cccc(C(F)(F)F)c1` the Potency was inconclusive: 6.31 µM [inhibitor, single point].
In the case of `O=C(O)c1cc(-c2cccc3ccccc23)nc2ccccc12`, the Potency is reported as inconclusive: 35.5 µM [inhibitor, single point].
With `COc1ccc(-c2oc3ncn4nc(-c5ccc(Cl)cc5)nc4c3c2-c2ccc(OC)cc2)cc1` the “activity change, negative = inhibition” value was inactive: 12% [at 46.1 µM].
In the case of `O=C(CCN1C(=O)C2C3C=CC(C3)C2C1=O)NC1CCCc2ccccc21` (configuration not stated), the Potency is reported as inconclusive: 14.1 µM [activator, single point].
With `COc1cc2c(cc1OC)C(c1ccc(Cl)cc1)N(c1ccc(C)c(F)c1)C(=O)C2` (configuration not stated) the “activity change, negative = inhibition” value was inactive: -21.4% [at 46.1 µM].
For `COC(=O)C1(C)NC(c2cccs2)C2C(=O)N(c3ccc(F)cc3)C(=O)C21` (configuration not stated), the Potency was inconclusive: 35.5 µM [activator, single point].
With `CC1CCN(CC(O)COC2CCC(C(C)(C)C)CC2)CC1` (configuration not stated) the Potency was inconclusive: 14.1 µM [inhibitor, partial curve].
For `Cc1ccc(NC(=O)CSCC(=O)N2c3ccccc3CCc3ccccc32)cc1`, the Potency was inconclusive: 29.1 µM [inhibitor, single point].
For `CN(C)c1ccc(P(=O)(OC2CCCCC2)C(O)c2ccncc2)cc1` (configuration not stated), the Potency was inconclusive: 6.31 µM [inhibitor, single point].
For `Cc1occc1C(=O)N(C)Cc1nc(-c2ccc(Cl)cc2)no1`, the Potency was inconclusive: 22.4 µM [inhibitor, single point].
For `CC(C)(C)S(=O)(=O)Cc1nc(-c2ccc(Cl)c(Cl)c2)cs1`, the “activity change, negative = inhibition” value was inactive: -8.1% [at 46.1 µM].
With `O=C(NC(=S)NC1C2CC3CC(C2)CC1C3)C12CC3CC(CC(C3)C1)C2` (configuration not stated) the Potency was inconclusive: 0.316 µM [activator, partial curve, poor fit].
For `COC(=O)CCCC(=O)N1CCC(CCC(=O)NCc2ccc(F)cc2)CC1`, the “activity change, negative = inhibition” value was inactive: -8.07% [at 46.1 µM].
For `FC(F)(F)c1ccccc1/C=N/N1CCN(Cc2ccccc2)CC1`, the “activity change, negative = inhibition” value was inactive: 3.68%.
With `CCCn1c(Nc2nc3ccccc3n2C)nc2ccccc21` the Potency was inconclusive: 16.4 µM [inhibitor, single point].
In the case of `Cc1sc2ncnc(N[C@@H](Cc3c[nH]c4ccccc34)C(=O)O)c2c1C`, the Potency is reported as inconclusive: 2.82 µM [activator, single point].
For `COC(=O)c1ccccc1NC(=O)CN1CCN(c2ccccn2)CC1`, the Potency was inconclusive: 5.62 µM [inhibitor, single point].
With `O=C(Nc1ccc2c(c1)CCC2)c1cnccn1` the “activity change, negative = inhibition” value was inactive: -21.2%.
In the case of `O=C(Nc1c(F)cccc1F)C(c1ccccc1)c1ccccc1`, the “activity change, negative = inhibition” value is reported as inactive: -5.58% [at 46.1 µM].
For `CCc1ccc(Nc2cc(C)nc3nc(Cc4ccc(Cl)cc4)nn23)cc1`, the Potency was inconclusive: 35.5 µM [inhibitor, single point].
For `COc1ccc(C(CNC(=O)c2oc3ccccc3c2C)N2CCCC2)cc1` (configuration not stated), the Potency was inconclusive: 17.8 µM [inhibitor, single point].
In the case of `CCCN1C(=O)c2cccc3c(N4CCCCC4)ccc(c23)C1=O`, the Potency is reported as inconclusive: 2.82 µM [activator, full curve, poor fit].
With `CC(C)c1ccc(OCc2cc(=O)n3c4c(sc3n2)CCCC4)cc1` the “activity change, negative = inhibition” value was inactive: -1.62% [at 46.1 µM].
For `Cc1cccc(NC(=O)CSc2nc3ccc(NC(=O)c4cccs4)cc3s2)c1`, the “activity change, negative = inhibition” value was inactive: 4.83% [at 46.1 µM].
With `CCCOc1ccc(N2C(=O)CC(NCc3ccncc3)C2=O)cc1` (configuration not stated) the Potency was inconclusive: 12.6 µM [activator, single point].
For `CC(C)(C)c1ccc(-c2noc(CCC(N)=O)n2)cc1`, the Potency was active: 1.46 µM.
With `Cn1nc(CC(=O)Nc2ccc3c(c2)OCCO3)c2ccccc2c1=O` the Potency was inconclusive: 0.398 µM [inhibitor, full curve, poor fit].
For `O=C(C(=S)N1CCOCC1)c1c[nH]c2ccccc12`, the Potency was inconclusive: 1.12 µM [inhibitor, partial curve, poor fit].
With `CC1CC2=C(C(=O)O1)C(c1ccc(Cl)cc1)Nc1ccccc1N2` (configuration not stated) the Potency was inconclusive: 25.1 µM [inhibitor, single point].
In the case of `Cc1ccc(OCCC(=O)N(Cc2ccccc2)c2c(N)n(Cc3ccccc3)c(=O)[nH]c2=O)cc1`, the Potency is reported as inconclusive: 35.5 µM [inhibitor, single point].
For `CC(C)C(NC(=O)C12CC3CC(CC(C3)C1)C2)C(=O)N/N=C/C1=C(N2CCOCC2)C(=C\c2cccc([N+](=O)[O-])c2)/CC1` (configuration not stated), the Potency was inconclusive: 3.16 µM [inhibitor, single point].
With `O=C(Cc1c(F)cccc1Cl)NNC(=O)Nc1ccc2c(c1)OCO2` the Potency was inconclusive: 31.6 µM [activator, single point].
For `Cc1ccc(OC(=O)c2snnc2C)cc1C`, the “activity change, negative = inhibition” value was inactive: -5.02% [at 46.1 µM].
For `O=C(OCc1ccccc1)C1CCCN1C(=O)c1ccccc1[N+](=O)[O-]` (configuration not stated), the Potency was inconclusive: 0.517 µM [inhibitor, partial curve, poor fit].
For `O=Cc1ccc(OC(=O)C2CC(=O)N(c3ccc(F)cc3)C2)cc1` (configuration not stated), the Potency was inconclusive: 29.1 µM [inhibitor, single point].
For `N#CC(Sc1ccccn1)c1ccc(Cl)cc1` (configuration not stated), the Potency was inconclusive: 12.6 µM [inhibitor, single point].
For `Cc1cccc(C)c1OCCNC(=O)C(=O)NCc1ccco1`, the Potency was inconclusive: 1.12 µM [inhibitor, partial curve, poor fit].
With `COc1cccc(CC(=O)Nc2ccc(N3CCOCC3)c(S(=O)(=O)Nc3ccccc3OC)c2)c1` the Potency was inconclusive: 0.0891 µM [activator, full curve, poor fit].
With `Cc1ccc(CN2CCNC(=O)C2CC(=O)N(C)CCc2ccccc2)cc1` (configuration not stated) the “activity change, negative = inhibition” value was inactive: -7.67% [at 46.1 µM].
With `O=C1CCN(C(=O)CNC(=O)Cc2ccccc2)CC1` the Potency was inconclusive: 35.5 µM [activator, single point].
With `COc1cc2nc(SCC(=O)Nc3ccc(F)cc3)n3nc(CCn4c(C)nc5ccccc54)nc3c2cc1OC` the Potency was inconclusive: 1 µM [activator, partial curve, poor fit].
For `CC(C)Cn1c(N)c(C(=O)COC(=O)CC23CC4CC(CC(C4)C2)C3)c(=O)n(C)c1=O`, the Potency was active: 8.91 µM.
In the case of `O=[N+]([O-])c1cccc(C=Nc2cccc3ccccc23)c1O`, the Potency is reported as inconclusive: 35.5 µM [activator, single point].
For `Cc1cccc(N2CCN(C(=O)c3ccncc3)CC2C)c1` (configuration not stated), the Potency was inconclusive: 0.73 µM [inhibitor, full curve, poor fit].
In the case of `CC(=O)c1c(C)[nH]c(C(=O)OCc2ccc([N+](=O)[O-])cc2)c1C`, the “activity change, negative = inhibition” value is reported as inactive: -4.06% [at 46.1 µM].
With `COc1cc(CNCCN(C)C)c(Br)cc1OCC(=O)NCc1ccccc1` the “activity change, negative = inhibition” value was inactive: 3.06%.
In the case of `O=C(NCCOc1ccccc1)C1CCCCC1`, the “activity change, negative = inhibition” value is reported as inactive: 17.6% [at 46.1 µM].
In the case of `O=C(CN1CCN(S(=O)(=O)c2ccc(Cl)cc2)CC1)Nc1ccc(F)cc1F`, the Potency is reported as inconclusive: 6.31 µM [activator, single point].
In the case of `CCOC(=O)C1=C(c2ccccc2)NC(=O)NC1c1cc(OC)c(OC)cc1OC` (configuration not stated), the Potency is reported as inconclusive: 6.31 µM [inhibitor, single point].
For `COC(=O)c1cc2oc(C)cc2n1Cc1c(C)cc(C)cc1C`, the “activity change, negative = inhibition” value was inactive: 15.2% [at 46.1 µM].
With `O=C(CSc1n[nH]c(-c2cccnc2)n1)Nc1ccccc1[N+](=O)[O-]` the “activity change, negative = inhibition” value was inactive: -9.45% [at 46.1 µM].
With `COC1C(OC(=O)/C=C/C=C/C=C/C=C/C(=O)O)CCC2(CO2)C1C1(C)OC1CC=C(C)C` (configuration not stated) (tested in a mixture with another compound) the “activity change, negative = inhibition” value was inactive: -20%.
In the case of `N#CC1=C(N)Oc2ccccc2C12C(=O)Nc1n[nH]c(-c3ccccc3)c12` (configuration not stated), the “activity change, negative = inhibition” value is reported as inactive: 2.02%.
In the case of `Cc1cc(/C=C(\C#N)C(=O)NC2CC2)c(C)[nH]1`, the Potency is reported as inconclusive: 1.26 µM [activator, full curve, poor fit].
For `O=S(=O)(c1ccc(S(=O)(=O)N2CCCN(Cc3ccccc3)C2)cc1)N1CCCCCC1`, the Potency was inconclusive: 29.1 µM [inhibitor, single point].
With `O=C(Cn1cccc1C(=O)c1ccccc1)NCc1ccc(F)cc1` the Potency was “inactive”.
In the case of `Cc1ccnc(NC(=O)c2cccc(S(=O)(=O)Nc3ccc(C)cc3C)c2)c1`, the Potency is reported as inconclusive: 11.2 µM [inhibitor, partial curve, poor fit].
For `COc1cc2c(=O)n(Cc3ccccc3)c(=O)n(CC(=O)Nc3cc(C(F)(F)F)ccc3Cl)c2cc1OC`, the “activity change, negative = inhibition” value was inactive: 9.54% [at 46.1 µM].
In the case of `Cc1ccc(C)c(OCc2nnc(NC(=O)c3ccco3)s2)c1`, the Potency is reported as “inactive”.
For `COC(=O)c1ccc(CN(c2ccc(C(=O)O)c(O)c2)S(=O)(=O)c2ccc(Cl)c([N+](=O)[O-])c2)cc1`, the Potency was inconclusive: 0.891 µM [inhibitor, partial curve, poor fit].
With `C=CCN(c1ccccc1OC)S(=O)(=O)c1cccc(C(=O)Nc2nnc(C3CC3)s2)c1` the Potency was inconclusive: 35.5 µM [inhibitor, single point].
In the case of `CCN1C(=O)N[C@H](c2ccc(Br)cc2)C(C(C)=O)=C1C`, the Potency is reported as inconclusive: 2.59 µM [activator, single point] and inconclusive: 2.11 µM [inhibitor, single point].
For `COC(=O)c1cc(Oc2ccc(C(=O)OC)cc2N)cc(C(=O)OC)c1`, the Potency was inconclusive: 6.51 µM [inhibitor, partial curve, poor fit].
